Source: PMC8147293, “Library of Selenocyanate and Diselenide Derivatives as In Vivo Antichagasic Compounds Targeting Trypanosoma cruzi Mitochondrion” (Pharmaceuticals, 2021)

Tests used:
[1] = tested on: epimastigotes of T. cruzi Arequipa strain; assay: Screening against extracellular epimastigotes (resazurin); format: cell-based, Trypanosoma cruzi; settings: for number of times that compounds exceed the reference drug SI, Epimast. (in brackets) / number of times that compounds exceed the reference drug SI (in brackets): versus BZN; for SI / number of times that compounds exceed the reference drug SI (in brackets): Table S1; for SI: IC50 Vero cells / IC50 epimastigote; for number of times that compounds exceed the reference drug SI (in brackets): epimastigote
Method: Trypanocidal activity against epimastigotes of T. cruzi Arequipa strain (MHOM/Pe/2011/Arequipa, discrete typing unit V) was tested as previously described. In short, 5 × 10^5 epimastigotes·mL^−1 were treated by adding the tested compounds at a concentration range from 100 to 0.2 µM in 96-well microplates (200 µL·well^−1) for 48 h. Subsequently, resazurin sodium salt (Sigma-Aldrich) was added to be incubated for further 24 h. Finally, the absorbance was measured, and the trypanocidal activity was expressed as the IC50 (inhibitory concentration 50) using GraphPad Prism 6 software. Each compound concentration was tested in triplicate in three independent experiments.

[2] = tested on: Trypanosoma cruzi intracellular amastigotes; assay: Screening against intracellular amastigotes in Vero cells (Giemsa counting); format: cell-based; settings: versus BZN
Method: Trypanocidal activity against amastigotes was determined according to the literature reported previously. […]. […] Each compound concentration was tested in triplicate in four separate determinations.

[3] = tested on: Trypanosoma cruzi bloodstream trypomastigotes (BTs); assay: Screening against bloodstream trypomastigotes (resazurin); format: cell-based; settings: versus BZN
Method: 2 × 10^6 Bloodstream trypomastigotes (BTs), obtained by cardiac puncture from infected BALB/c mice as previously described, were treated by adding the tested compounds at a concentration range from 50 to 0.1 µM in 96-well microplates (200 µL·well^−1) at 37 °C. After 24 h of treatment, resazurin sodium salt (Sigma-Aldrich) was added to be incubated for further 4 h. Finally, trypanocidal activity was determined following the same procedure as described to assess the trypanocidal activity in the epimastigotes. Each compound concentration was tested in triplicate in three independent experiments.

Row | Compound | number of times that compounds exceed the reference drug SI, Epimast. (in brackets) [1] | number of times that compounds exceed the reference drug SI, Amast. (in brackets) [2] | number of times that compounds exceed the reference drug SI, Trypomast. (in brackets) [3] | SI [1] | number of times that compounds exceed the reference drug SI (in brackets) [1]
1 | O=S(=O)(Nc1ccc([Se][Se]c2ccc(NS(=O)(=O)c3ccc(-c4ccccc4)cc3)cc2)cc1)c1ccc(-c2ccccc2)cc1 [compound 46] | 4 | 2 | 3 | – | –
2 | O=[N+]([O-])c1cccc(C[Se][Se]Cc2cccc([N+](=O)[O-])c2)c1 [compound 18] | – | – | – | 5 | 1
3 | N#C[Se]Cc1ccccc1 [compound 3] | – | – | – | 1 | 0
4 | FC(F)(F)c1ccc(C[Se][Se]Cc2ccc(C(F)(F)F)cc2)cc1 [compound 8] | 5 | 6 | 4 | – | –
5 | COc1ccc(S(=O)(=O)Nc2ccc([Se][Se]c3ccc(NS(=O)(=O)c4ccc(OC)cc4)cc3)cc2)cc1 [compound 38] | – | – | – | 1 | 0
6 | N#C[Se]Cc1cccc(C#N)c1 [compound 21] | 4 | 3 | 3 | – | –
7 | Cc1ccc(S(=O)(=O)Nc2ccc([Se][Se]c3ccc(NS(=O)(=O)c4ccc(C)cc4)cc3)cc2)cc1 [compound 43] | 3 | 2 | 3 | – | –
8 | O=S(=O)(Nc1ccc([Se][Se]c2ccc(NS(=O)(=O)c3cccs3)cc2)cc1)c1cccs1 [compound 48] | – | – | – | 9 | 2
9 | Cc1ccc(C[Se]C#N)cc1 [compound 11] | 4 | 2 | 2 | – | –
10 | CSc1ccc(C[Se][Se]Cc2ccc(SC)cc2)cc1 [compound 10] | 15 | 11 | 11 | – | –
11 | O=S(=O)(Nc1ccc([Se][Se]c2ccc(NS(=O)(=O)c3cccc4cccnc34)cc2)cc1)c1cccc2cccnc12 [compound 45] | – | – | – | 8 | 2
12 | N#C[Se]Cc1ccc(C(F)(F)F)cc1 [compound 7] | – | – | – | 1 | 0
13 | Brc1cc2c(cc1C[Se][Se]Cc1cc3c(cc1Br)OCO3)OCO2 [compound 24] | – | – | – | 1 | 0
14 | O=[N+]([O-])c1ccccc1C[Se][Se]Cc1ccccc1[N+](=O)[O-] [compound 16] | – | – | – | 1 | 0
15 | N#C[Se]Cc1cc2c(cc1Br)OCO2 [compound 23] | – | – | – | 3 | 1
16 | N#C[Se]Cc1nc2ccccc2nc1C[Se]C#N [compound 29] | – | – | – | 2 | 0
17 | N#Cc1ccc(C[Se][Se]Cc2ccc(C#N)cc2)cc1 [compound 14] | – | – | – | 0 | 0
18 | N#Cc1ccc(S(=O)(=O)Nc2ccc([Se][Se]c3ccc(NS(=O)(=O)c4ccc(C#N)cc4)cc3)cc2)cc1 [compound 40] | – | – | – | 4 | 1
19 | N#C[Se]Cc1cccc([N+](=O)[O-])c1 [compound 17] | – | – | – | 2 | 0
20 | N#Cc1cccc(C[Se][Se]Cc2cccc(C#N)c2)c1 [compound 22] | – | – | – | 0 | 0
21 | CSc1ccc(C[Se]C#N)cc1 [compound 9] | – | – | – | 6 | 1
22 | N#C[Se]Cc1c2ccccc2cc2ccccc12 [compound 28] | – | – | – | 8 | 2
23 | O=[N+]([O-])c1ccc(S(=O)(=O)Nc2ccc([Se][Se]c3ccc(NS(=O)(=O)c4ccc([N+](=O)[O-])cc4)cc3)cc2)cc1 [compound 39] | – | – | – | 0 | 0
24 | N#C[Se]Cc1ccc(Br)cc1 [compound 1] | – | – | – | 2 | 0

Row | Compound | number of times that compounds exceed the reference drug SI, Epimast. (in brackets) [1] | number of times that compounds exceed the reference drug SI, Amast. (in brackets) [2] | number of times that compounds exceed the reference drug SI, Trypomast. (in brackets) [3] | SI [1] | number of times that compounds exceed the reference drug SI (in brackets) [1]
25 | N#C[Se]CC(=O)C12CC3CC(CC(C3)C1)C2 [compound 31] | – | – | – | 6 | 1
26 | O=S(=O)(Nc1ccc([Se][Se]c2ccc(NS(=O)(=O)c3ccccc3)cc2)cc1)c1ccccc1 [compound 41] | – | – | – | 4 | 1
27 | N#Cc1ccccc1C[Se][Se]Cc1ccccc1C#N [compound 20] | 3 | 2 | 3 | – | –
28 | c1ccc(C[Se][Se]Cc2ccccc2)cc1 [compound 4] | – | – | – | 1 | 0
29 | c1cnc2c(C[Se][Se]Cc3cccc4cccnc34)cccc2c1 [compound 26] | – | – | – | 3 | 1
30 | O=S(=O)(Nc1ccc([Se][Se]c2ccc(NS(=O)(=O)c3ccc(Br)cc3)cc2)cc1)c1ccc(Br)cc1 [compound 33] | – | – | – | 5 | 1
31 | O=S(=O)(Nc1ccc([Se][Se]c2ccc(NS(=O)(=O)c3ccccc3F)cc2)cc1)c1ccccc1F [compound 37] | – | – | – | 0 | 0
32 | O=[N+]([O-])c1ccc(C[Se][Se]Cc2ccc([N+](=O)[O-])cc2)cc1 [compound 6] | – | – | – | 2 | 0
33 | N#C[Se]Cc1ccc([N+](=O)[O-])cc1 [compound 5] | – | – | – | 1 | 0
34 | O=S(=O)(Nc1ccc([Se][Se]c2ccc(NS(=O)(=O)c3ccc(Cl)cc3)cc2)cc1)c1ccc(Cl)cc1 [compound 34] | – | – | – | 0 | 0
35 | Cc1ccc(C[Se][Se]Cc2ccc(C)cc2)cc1 [compound 12] | – | – | – | 0 | 0
36 | Brc1ccc(C[Se][Se]Cc2ccc(Br)cc2)cc1 [compound 2] | – | – | – | 1 | 0
37 | N#C[Se]Cc1cccc2cccnc12 [compound 25] | – | – | – | 1 | 0
38 | O=S(=O)(Nc1ccc([Se][Se]c2ccc(NS(=O)(=O)c3ccc(C(F)(F)F)cc3)cc2)cc1)c1ccc(C(F)(F)F)cc1 [compound 42] | – | – | – | 6 | 1
39 | O=S(=O)(Nc1ccc([Se][Se]c2ccc(NS(=O)(=O)c3ccc(F)cc3)cc2)cc1)c1ccc(F)cc1 [compound 36] | – | – | – | 6 | 1
40 | N#C[Se]Cc1ccccc1[N+](=O)[O-] [compound 15] | 4 | 4 | 2 | – | –
41 | O=S(=O)(Nc1ccc([Se][Se]c2ccc(NS(=O)(=O)c3ccccc3Cl)cc2)cc1)c1ccccc1Cl [compound 35] | – | – | – | 2 | 0
42 | Cn1ccnc1S(=O)(=O)Nc1ccc([Se][Se]c2ccc(NS(=O)(=O)c3nccn3C)cc2)cc1 [compound 47] | 2 | 2 | 2 | – | –
43 | N#C[Se]Cc1ccccc1C#N [compound 19] | – | – | – | 0 | 0
44 | N#C[Se]Cc1ccc(C#N)cc1 [compound 13] | – | – | – | 7 | 1
45 | O=S(=O)(Nc1ccc([Se][Se]c2ccc(NS(=O)(=O)c3ccc4ccccc4c3)cc2)cc1)c1ccc2ccccc2c1 [compound 44] | – | – | – | 6 | 1
46 | N#C[Se]Cc1ccc2ccccc2n1 [compound 27] | – | – | – | 0 | 0
47 | COc1cc2oc(=O)cc(C[Se]C#N)c2cc1OC [compound 30] | – | – | – | 4 | 1
